Values from PubChem BioAssay AID602196 (INSERM, 2012).
Here is one part, drawn at random, of about 23,000 reagents tested. Over the whole deposit, 455 (2%) got an active call. 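Active includes both protection and sensitisation; some change values fall well beyond the stated -50 to +50 range.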 Not all columns of the deposit are shown. Reagent sequences are not shown. The record does not give: the amount of reagent.

Purpose: 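Knock-downs that protect lung cancer cells from cisplatin or sensitise them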
Cell system: human A549 lung cancer cells
Reagents: siRNA pair against human genes
Timing: 48 h transfection before cisplatin; time from cisplatin to read-out not stated
Conditions: cisplatin at a dose killing half of control-siRNA cells; exact dose and duration not given
Measurement: 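Cisplatin cell death as a shift from the 50% death seen with control siRNA; siRNAs toxic or growth-blocking alone scored 0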
Direction: two-siRNA summed score (-2 to +2): higher = both siRNAs protect from cisplatin killing; -2 means both sensitise
Rule for the call: 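Each siRNA scores 0 if harmful alone by LDH or WST-1, otherwise +1 if it reduces and -1 if it increases cisplatin killing; a gene is active when both siRNAs agree (sum +2 or -2)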
Meaning of the calls: active = both siRNAs shift cisplatin killing the same way; inactive = no consistent shift, or siRNA harmful alone

gene symbol	two-siRNA summed score (-2 to +2)	outcome
EME1 (essential meiotic structure-specific endonuclease 1)	0	inactive
NGFR (nerve growth factor receptor)	0	inactive
CFAP99 (cilia and flagella associated protein 99)	1	inactive
LOC401038	0	inactive
SCUBE1 (signal peptide, CUB domain and EGF like domain containing 1)	0	inactive
FLJ41170 (retired record)	0	inactive
SLC28A2	0	inactive
SERPINF2 (serpin family F member 2)	-1	inactive
MED11 (mediator complex subunit 11)	0	inactive
LOC399924	0	inactive
AMOTL2 (angiomotin like 2)	1	inactive
HAGHL (hydroxyacylglutathione hydrolase like)	0	inactive
EIF4EBP2	0	inactive
MTHFD2	0	inactive
LIMK2 (LIM domain kinase 2)	-1	inactive
TNIP1 (TNFAIP3 interacting protein 1)	0	inactive
FBXW9 (F-box and WD repeat domain containing 9)	0	inactive
STX1A (syntaxin 1A)	-2	active
LOC441166	0	inactive
LOC442513	1	inactive
C9orf43 (chromosome 9 open reading frame 43)	0	inactive
FSAF1 (40S small subunit processome assembly factor 1)	-2	active
H4C6 (H4 clustered histone 6)	0	inactive
CARD17P (caspase recruitment domain family member 17, pseudogene)	0	inactive
IVD (isovaleryl-CoA dehydrogenase)	0	inactive
CYP2A6 (cytochrome P450 family 2 subfamily A member 6)	0	inactive
TMEM9B (TMEM9 domain family member B)	0	inactive
TRIM5 (tripartite motif containing 5)	0	inactive
OR2Z1 (olfactory receptor family 2 subfamily Z member 1)	1	inactive
ZNF678 (zinc finger protein 678)	1	inactive
PAK2 (p21 (RAC1) activated kinase 2)	1	inactive
SLC6A13	0	inactive
PLIN3 (perilipin 3)	0	inactive
LAT (linker for activation of T cells)	0	inactive
CYMP-AS1 (CYMP antisense RNA 1)	0	inactive
MGC24125	0	inactive
GTF2I (general transcription factor IIi)	2	active
FLJ39117	0	inactive
RGS10 (regulator of G protein signaling 10)	-1	inactive
FAM181B (family with sequence similarity 181 member B)	0	inactive
ESCO2	0	inactive
LOC146110	-1	inactive
DDX56 (DEAD-box helicase 56)	0	inactive
FLJ41327 (retired record)	1	inactive
SHQ1 (SHQ1, H/ACA ribonucleoprotein assembly factor)	1	inactive
LARP6 (La ribonucleoprotein 6, translational regulator)	1	inactive
GPR85 (G protein-coupled receptor 85)	0	inactive
AFP (alpha fetoprotein)	0	inactive
LOC401233	0	inactive
PRMT2IP (PRMT2 interacting protein)	0	inactive
GRM7 (glutamate metabotropic receptor 7)	-1	inactive
EIF3LP3	0	inactive
CHLSN (cholesin)	0	inactive
PLAC9P1 (placenta associated 9 pseudogene 1)	0	inactive
FIRRE (firre intergenic repeating RNA element)	0	inactive
NDUFB6 (NADH:ubiquinone oxidoreductase subunit B6)	1	inactive
ZNF17 (zinc finger protein 17)	1	inactive
MC5R (melanocortin 5 receptor)	0	inactive
RANBP3L (RAN binding protein 3 like)	0	inactive
FAM156A (family with sequence similarity 156 member A)	0	inactive
CDKN2AIP (CDKN2A interacting protein)	0	inactive
ERVV-1 (endogenous retrovirus group V member 1, envelope)	1	inactive
NAA30 (N-alpha-acetyltransferase 30, NatC catalytic subunit)	0	inactive
LOC441743	0	inactive
COL2A1 (collagen type II alpha 1 chain)	0	inactive
RASAL1 (RAS protein activator like 1)	0	inactive
LOC401014	0	inactive
PDGFB (platelet derived growth factor subunit B)	0	inactive
VCPIP1 (valosin containing protein interacting protein 1)	0	inactive
LOC440587	0	inactive
BOLA3 (bolA family member 3)	0	inactive
LOC440685	0	inactive
LOC387950	0	inactive
